The text below walks through data of doi:10.1101/2020.04.03.023721.

Protein sequences, listed by entry. Tags and fused reporters are not part of them. Lines headed by an entry give the natural chain unless they say otherwise; changes in a name come on top.
UniProt P49023, whole entry: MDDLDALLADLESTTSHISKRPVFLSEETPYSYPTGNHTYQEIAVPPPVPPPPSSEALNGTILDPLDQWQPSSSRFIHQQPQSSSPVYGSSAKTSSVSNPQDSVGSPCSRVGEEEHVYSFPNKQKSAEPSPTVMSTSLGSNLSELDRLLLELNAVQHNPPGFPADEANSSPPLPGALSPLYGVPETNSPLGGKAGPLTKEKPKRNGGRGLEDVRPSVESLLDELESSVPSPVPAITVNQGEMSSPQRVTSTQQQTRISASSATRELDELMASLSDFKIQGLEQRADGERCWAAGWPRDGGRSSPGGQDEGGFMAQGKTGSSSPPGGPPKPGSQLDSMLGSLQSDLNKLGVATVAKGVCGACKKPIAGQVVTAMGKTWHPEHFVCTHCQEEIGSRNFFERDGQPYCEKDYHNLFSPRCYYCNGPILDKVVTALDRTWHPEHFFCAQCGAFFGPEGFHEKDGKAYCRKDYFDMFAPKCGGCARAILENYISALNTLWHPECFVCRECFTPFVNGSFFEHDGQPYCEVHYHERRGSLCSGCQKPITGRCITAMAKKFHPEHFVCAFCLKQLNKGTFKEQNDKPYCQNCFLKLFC

What all share (test): co-IP
Test [1] concerns the target T1, Flag-UPS13(625-863) (human) (UniProt Q92995).
T1 sequence: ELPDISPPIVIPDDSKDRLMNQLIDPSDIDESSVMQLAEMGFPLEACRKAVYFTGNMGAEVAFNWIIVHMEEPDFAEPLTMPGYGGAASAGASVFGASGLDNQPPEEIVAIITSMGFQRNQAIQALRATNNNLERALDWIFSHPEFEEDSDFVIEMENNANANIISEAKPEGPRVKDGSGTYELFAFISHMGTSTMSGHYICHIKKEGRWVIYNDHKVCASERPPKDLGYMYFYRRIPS

For test [2], the target named is T2, Flag-P2X7(K30A) (UniProt Q99572).
T2 sequence: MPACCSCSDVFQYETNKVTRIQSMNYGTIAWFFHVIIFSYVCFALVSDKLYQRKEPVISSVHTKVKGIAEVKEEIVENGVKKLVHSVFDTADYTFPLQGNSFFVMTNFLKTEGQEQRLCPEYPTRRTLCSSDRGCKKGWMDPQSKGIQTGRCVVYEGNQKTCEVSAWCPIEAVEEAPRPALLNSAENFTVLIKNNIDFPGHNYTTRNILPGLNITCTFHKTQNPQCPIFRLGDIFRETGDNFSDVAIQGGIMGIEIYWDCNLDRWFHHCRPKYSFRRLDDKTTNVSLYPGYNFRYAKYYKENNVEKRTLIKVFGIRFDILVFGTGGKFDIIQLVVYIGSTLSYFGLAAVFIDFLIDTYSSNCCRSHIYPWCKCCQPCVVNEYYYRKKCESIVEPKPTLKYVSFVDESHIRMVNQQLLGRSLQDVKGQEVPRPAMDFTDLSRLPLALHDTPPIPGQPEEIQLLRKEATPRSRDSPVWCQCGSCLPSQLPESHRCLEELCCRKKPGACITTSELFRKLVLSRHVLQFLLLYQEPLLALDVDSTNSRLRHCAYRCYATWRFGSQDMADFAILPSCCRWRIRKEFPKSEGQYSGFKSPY

In test [3] the target is T3, Flag-UPS13(1-300) (human) (UniProt Q92995).
T3 sequence: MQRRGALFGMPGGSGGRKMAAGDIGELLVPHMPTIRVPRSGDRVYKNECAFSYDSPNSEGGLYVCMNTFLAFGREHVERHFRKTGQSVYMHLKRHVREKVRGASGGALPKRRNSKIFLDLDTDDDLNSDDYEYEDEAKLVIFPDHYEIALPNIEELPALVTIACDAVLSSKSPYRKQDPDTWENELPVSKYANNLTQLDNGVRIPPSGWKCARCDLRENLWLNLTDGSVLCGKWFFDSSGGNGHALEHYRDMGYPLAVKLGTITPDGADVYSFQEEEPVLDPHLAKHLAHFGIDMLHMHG

Test [4] deals with T4, Flag-P2X7(36-595) (UniProt Q99572).
T4 sequence: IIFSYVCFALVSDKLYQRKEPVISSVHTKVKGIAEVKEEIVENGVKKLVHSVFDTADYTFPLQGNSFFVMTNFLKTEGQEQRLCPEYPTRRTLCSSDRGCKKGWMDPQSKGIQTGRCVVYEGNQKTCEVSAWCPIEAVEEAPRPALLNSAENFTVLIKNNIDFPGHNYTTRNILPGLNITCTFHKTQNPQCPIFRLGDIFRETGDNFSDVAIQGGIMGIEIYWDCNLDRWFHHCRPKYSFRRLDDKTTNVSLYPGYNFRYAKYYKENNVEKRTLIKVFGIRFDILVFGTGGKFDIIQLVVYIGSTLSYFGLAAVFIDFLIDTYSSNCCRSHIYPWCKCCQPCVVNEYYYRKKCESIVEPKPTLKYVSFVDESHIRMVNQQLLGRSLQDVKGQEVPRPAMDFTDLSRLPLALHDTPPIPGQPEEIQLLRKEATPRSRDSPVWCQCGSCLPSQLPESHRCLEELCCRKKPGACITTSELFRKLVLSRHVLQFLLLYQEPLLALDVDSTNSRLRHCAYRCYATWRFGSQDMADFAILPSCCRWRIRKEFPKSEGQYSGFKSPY

These are yes or no findings as the source states them, for the method shown. Binding seen in cells or lysates may run through a third protein. Some entries that bind do so weakly or less than the wild type. Where a sequence is shown, tags or fusion partners need not be part of it.

Turning to HA-Paxillin (from UniProt P49023 1-591), the binding result in test [1] was “no binding”; in test [2], “no binding”; in test [3], “binds”; in test [4] it was “no binding”.
